From PMC3681493
No constants are given. Whether binding was seen depends on the method and setting. Binding seen in cells or lysates may run through a third protein. Some entries that bind do so weakly or less than the wild type.

Sequences of proteins named here, by UniProt entry; tags and fusion partners are left off. A change or cut given only in a name is not applied to a line headed by its entry.
UniProt P35222: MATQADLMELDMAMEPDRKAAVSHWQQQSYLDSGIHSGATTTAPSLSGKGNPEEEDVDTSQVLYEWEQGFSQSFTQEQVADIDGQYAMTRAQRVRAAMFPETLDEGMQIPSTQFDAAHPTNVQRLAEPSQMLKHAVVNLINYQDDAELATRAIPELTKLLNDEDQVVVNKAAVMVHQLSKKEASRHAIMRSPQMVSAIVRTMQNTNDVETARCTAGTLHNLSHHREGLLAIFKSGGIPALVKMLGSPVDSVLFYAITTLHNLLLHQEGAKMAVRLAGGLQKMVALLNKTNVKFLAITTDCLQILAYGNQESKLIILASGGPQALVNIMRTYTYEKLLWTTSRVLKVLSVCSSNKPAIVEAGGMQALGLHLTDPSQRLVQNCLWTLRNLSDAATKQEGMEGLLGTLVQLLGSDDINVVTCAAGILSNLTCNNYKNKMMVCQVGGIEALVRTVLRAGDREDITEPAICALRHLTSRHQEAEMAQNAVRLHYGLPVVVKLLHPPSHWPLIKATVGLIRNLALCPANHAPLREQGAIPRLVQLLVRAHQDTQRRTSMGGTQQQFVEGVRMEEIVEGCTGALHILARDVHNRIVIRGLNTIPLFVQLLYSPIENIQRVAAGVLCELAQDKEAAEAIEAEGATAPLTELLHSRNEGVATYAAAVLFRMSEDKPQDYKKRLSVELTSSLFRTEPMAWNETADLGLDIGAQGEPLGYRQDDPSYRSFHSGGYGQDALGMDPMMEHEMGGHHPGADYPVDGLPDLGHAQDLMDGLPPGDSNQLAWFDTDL
UniProt Q9NQB0: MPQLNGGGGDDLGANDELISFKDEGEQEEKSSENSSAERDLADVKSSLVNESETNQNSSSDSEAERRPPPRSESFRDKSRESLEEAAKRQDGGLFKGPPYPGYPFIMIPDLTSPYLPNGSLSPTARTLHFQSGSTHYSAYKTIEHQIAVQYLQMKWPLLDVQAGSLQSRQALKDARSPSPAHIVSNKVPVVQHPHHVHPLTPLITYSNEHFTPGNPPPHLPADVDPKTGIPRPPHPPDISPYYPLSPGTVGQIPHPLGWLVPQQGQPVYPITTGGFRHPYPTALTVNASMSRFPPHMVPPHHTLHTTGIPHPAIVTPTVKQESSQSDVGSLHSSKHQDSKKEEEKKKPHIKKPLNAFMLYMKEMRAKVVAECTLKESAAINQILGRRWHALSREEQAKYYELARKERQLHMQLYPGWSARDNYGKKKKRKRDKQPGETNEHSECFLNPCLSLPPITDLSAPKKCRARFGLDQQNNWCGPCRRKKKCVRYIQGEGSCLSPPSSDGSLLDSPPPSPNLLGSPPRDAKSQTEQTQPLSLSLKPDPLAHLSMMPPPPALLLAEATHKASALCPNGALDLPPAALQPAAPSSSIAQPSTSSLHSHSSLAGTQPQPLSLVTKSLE
UniProt Q9BT81: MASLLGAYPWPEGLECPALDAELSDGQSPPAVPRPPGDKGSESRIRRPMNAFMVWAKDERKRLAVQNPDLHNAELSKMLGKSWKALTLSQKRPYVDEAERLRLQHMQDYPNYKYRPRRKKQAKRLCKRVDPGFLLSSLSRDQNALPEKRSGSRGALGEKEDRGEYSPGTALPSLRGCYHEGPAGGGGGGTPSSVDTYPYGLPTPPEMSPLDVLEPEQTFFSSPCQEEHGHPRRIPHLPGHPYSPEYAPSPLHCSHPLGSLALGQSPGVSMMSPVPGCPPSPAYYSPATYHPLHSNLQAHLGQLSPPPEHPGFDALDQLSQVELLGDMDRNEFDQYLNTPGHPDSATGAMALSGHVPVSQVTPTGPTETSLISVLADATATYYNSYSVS

Columns and labels:
Assay in all cases: co-IP; HEK293 cells transiently co-transfected with Flag/Sox7 and HA/β-catenin, or GFP/mutant β-catenin, or Myc/TCF4; IgG as control antibody; procedure as in refs 16, 17
[1] = target: GFP/mutant β-catenin S37A (UniProt P35222)
[2] = target: HA/β-catenin (wild-type β-catenin) (UniProt P35222)
Myc/TCF4 fusion protein = Myc/TCF4 fusion protein (UniProt Q9NQB0)

binding [1]: binds
binding [2]: binds
binding (Myc/TCF4 fusion protein): binds
Substance: Flag-tagged Sox7 fusion protein (from UniProt Q9BT81 1-388)
